PubChem BioAssay AID1259283, Sanger Institute | 2017
This is a random part of 794 reagents tested. 14 of them (1.8%) count as active. 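Calls reflect only viability loss without drug; drug synergy does not enter the call.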 Viability is capped at 1. Not all columns of the deposit are shown. Not given: the amount of reagent, the time to read-out.

- Test: 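Kinases whose silencing adds to targeted drugs in killing colon cancer cells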 (primary screen)
- System: HT115 colorectal cancer cells
- Knock-down reagent: siRNA pool against human genes
- Conditions: anchor drug given one day after siRNA: BYL719 at 1 µM, cetuximab at 5 µg/ml, trametinib at 10 nM, or DMSO vehicle alone
- Measured: 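Viability normalised to non-targeting pool #2 wells and averaged over replicates, robust z-score against control wells, and a synergy score for each of three drugs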
- Reading the numbers: robust z-score, knock-down alone: higher = more viable cells after knock-down; viability, DMSO vs non-targeting control: higher = more viable cells; synergy score with BYL719: higher = stronger synergy with drug (synthetic lethal)
- Call rule: 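a gene counts as essential when its robust z-score with knock-down alone is below -3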
- Meaning of the calls: active = essential (z below -3, no drug); inactive = no change without drug

no.	gene	robust z-score, knock-down alone	viability, DMSO vs non-targeting control (fraction of control)	synergy score with BYL719	Outcome
1	CDKL5	-0.503	0.881	0.068	inactive
2	STYK1	-1.1	0.825	0.0527	inactive
3	PPP2R1A	0.789	1	-0.0135	inactive
4	CHD4	-2.95	0.654	-0.138	inactive
5	DAPK1	0.0766	0.934	0.0675	inactive
6	BRD2	-0.632	0.869	-0.0577	inactive
7	MET	0.789	1	0.0642	inactive
8	PFKP	-0.666	0.866	-0.0186	inactive
9	PRKAG3	-3.28	0.624	-0.0203	active
10	STK32A	0.789	1	-0.0224	inactive
11	PRKAR2B	-0.349	0.895	0.022	inactive
12	CNOT1	-3.9	0.567	-0.127	active
13	MAPK15	-0.507	0.88	-0.0547	inactive
14	NEK9	-0.389	0.891	0.0828	inactive
15	NPR2	0.789	1	0.0755	inactive
16	TBX3	0.289	0.954	0.0357	inactive
17	MAP2K4	-0.0533	0.922	-0.0385	inactive
18	GK	0.789	1	-0.0134	inactive
19	STK32B	-0.828	0.851	0.0224	inactive
20	TP53	-1.99	0.743	0.0314	inactive
21	CAD	0.789	1	0.00706	inactive
22	TEX14	0.789	1	0.0793	inactive
23	CDC7	0.601	0.983	0.12	inactive
24	HIPK4	0.789	1	0.0107	inactive
25	ROS1	-1.47	0.792	-0.109	inactive
26	PHKA1	0.789	1	-0.00126	inactive
27	PSKH2	-0.89	0.845	0.0264	inactive
28	ALDH18A1	-0.877	0.846	-0.0737	inactive
29	CSNK1G3	0.789	1	-0.00963	inactive
30	DCLK1	0.0721	0.934	-0.000539	inactive
31	MAP4K1	-0.111	0.917	0.0395	inactive
32	NADK	0.789	1	0.0729	inactive
33	HK3	0.789	1	0.0231	inactive
34	SNRK	-2.56	0.69	0.0354	inactive
35	BLK	0.789	1	-0.0224	inactive
36	TGFBR2	-0.421	0.888	-0.0166	inactive
37	PIP4K2C	0.109	0.937	-0.0371	inactive
38	MAGI1	-0.654	0.867	-0.0506	inactive
39	ACVR1	0.789	1	0.165	inactive
40	PKN2	-0.589	0.873	-0.0586	inactive
41	PDK2	-0.524	0.879	-0.126	inactive
42	BRAF	-1.14	0.822	0.0296	inactive
43	GUK1	0.488	0.972	0.0187	inactive
44	CAMKK2	0.504	0.974	-0.0481	inactive
45	BMPR1B	0.598	0.982	0.069	inactive
46	CKMT2	0.789	1	0.159	inactive
47	ERBB2	0.789	1	-0.0224	inactive
48	DLG3	0.789	1	-0.0224	inactive
49	ACVRL1	0.789	1	0.0593	inactive
50	FGFRL1	-0.464	0.884	-0.0263	inactive

Entries listed so far whose gene name begins with N or n:
gene	robust z-score, knock-down alone	viability, DMSO vs non-targeting control (fraction of control)	synergy score with BYL719	Outcome
NEK9	-0.389	0.891	0.0828	inactive
NPR2	0.789	1	0.0755	inactive
NADK	0.789	1	0.0729	inactive
